# Laboratory results from PubChem BioAssay AID540256 (National Center for Advancing Translational Sciences (NCATS), 2011).
# In all, about 300,000 compounds went through this assay and about 3,700 (1.2%) were called active. Inconclusive means that the source gave no clear call. Such entries were picked first, then a sample of the others. The call rests on the fitted dose curve; tested in HEK293 cells. A potency beside an inconclusive call is a rough fit, not a confirmed value.
# Test: qHTS for Inhibitors of binding or entry into cells for Lassa Virus; further: nearly all actives have a fitted effect of over 50% in size
# Conditions: Lassa virus pseudotype entry inhibition, cell reporter; activity change, negative = inhibition: at 37.9 µM (top of the series) unless noted
# On the % scale 0 is the no-effect control and ±100 the full control effect; potency means the concentration at half of the fitted maximal effect.
SMILES,Potency,"activity change, negative = inhibition"
CCOc1ccc(NC(=S)NCc2ccc3[nH]c(C)cc3c2)cc1,active: 2.91 µM,
Cc1nc(-c2cccs2)sc1C(=O)NN,"inconclusive: 8.91 µM [inhibitor, partial curve, poor fit]",
Cc1ccc(P(=O)(O)c2ccc(C)cc2)cc1,"inconclusive: 0.1 µM [inhibitor, partial curve, poor fit]",
Cc1ccc(Cn2c(=N)c(C(=O)NCc3ccco3)cc3c(=O)n4ccccc4nc32)cc1,"inconclusive: 5.01 µM [inhibitor, single point]",
CC1CCCC/C1=N\NS(=O)(=O)c1ccc(Br)cc1 (centres undefined),"inconclusive: 0.259 µM [activator, single point]",
Cc1cccc(NC(=O)CN2CCN(CC(=O)Nc3ccc(-c4ccccc4)cc3)CC2)c1C,"inconclusive: 35.5 µM [inhibitor, single point]",
Cc1ccc(NC(=O)N2CCc3c([nH]c4ccccc34)C2c2ccccc2F)c(Cl)c1 (centres undefined),active: 7.94 µM,
CCn1nc(C)c(CN2CCCCC2C(=O)Nc2ccc(Oc3cccnc3)cc2)c1C (centres undefined),,inactive: 4.28%
COCCN1C(=O)C(=O)/C(=C(/O)c2cccc(S(=O)(=O)N(C)C)c2)C12C(=O)N(C)c1ccccc12 (centres undefined),"inconclusive: 10 µM [activator, partial curve, poor fit]",
O=C(COc1ccc([N+](=O)[O-])cc1)N/N=C/c1cc([N+](=O)[O-])ccc1N1CCOCC1,"inconclusive: 10 µM [inhibitor, partial curve, poor fit]",
CCOC(=O)c1ccc(NC(=S)Nc2ccccc2)cc1,"inconclusive: 35.5 µM [inhibitor, single point]",
COc1cc(C)ccc1N(CCCN1C(=O)c2cccc3cccc(c23)C1=O)C(=O)c1cccs1,"inconclusive: 11.2 µM [inhibitor, partial curve]",
CC(=O)c1c(C)[nH]c(C(=O)OCc2ccc(Br)cc2)c1C,,inactive: -22.7%
CC(=O)c1c(C)[nH]c(C(=O)Nc2nc(C)cs2)c1C,active: 2.24 µM,
Cc1cc(C)c2c(n1)SCC(=O)N2CC(=O)Nc1c(C)cccc1C,"inconclusive: 35.5 µM [inhibitor, single point]",
O=C(CCc1ccccc1)Nc1ccccc1C(F)(F)F,"inconclusive: 3.55 µM [inhibitor, single point]",
Cc1cccc(N2CCN(C(=O)c3cccc(-n4c(C)nc5cccnc54)c3)CC2C)c1 (centres undefined),"inconclusive: 35.5 µM [inhibitor, single point]",
Nc1ccc(-n2nc3ccccc3n2)cc1,"inconclusive: 3.98 µM [activator, single point]",
COc1ccc(NS(=O)(=O)c2ccc(O)c(C(=O)OCC(=O)NC3CCCCC3)c2)cc1,"inconclusive: 35.5 µM [activator, partial curve, poor fit]",
COc1cccc2cc(C(=O)NCc3ccco3)c(=O)oc12,,inactive: 7.97%
CCCn1c2ccccc2c2nnc(SCC(=O)Nc3c(C)n(C)n(-c4ccccc4)c3=O)nc21,"inconclusive: 1.26 µM [inhibitor, partial curve, poor fit]",
CC(=O)N1CCc2c(sc(NC(=O)CSc3ccc(C)cc3)c2-c2nc3ccccc3s2)C1,"inconclusive: 0.562 µM [inhibitor, full curve, poor fit]",
CC(C)OCCCNc1ncnc2c1cnn2-c1ccccc1,"inconclusive: 11.2 µM [inhibitor, partial curve, poor fit]",

SMILES,Potency,"activity change, negative = inhibition"
Cc1ccc(CCNC(=O)c2ccc(CNS(=O)(=O)c3ccc(F)cc3)cc2)cc1,,inactive: 2.45% [at 46.1 µM]
Cc1ccccc1Nc1nc(N)nc(COC(=O)c2cccn2C)n1,"inconclusive: 29.1 µM [inhibitor, single point]",
COc1cc(C(C)=NNC(=O)c2ccncc2)ccc1O,,inactive: 4.49%
CC(=O)c1cc2c(=O)c3cc(C)ccc3oc2nc1C,"inconclusive: 1 µM [activator, full curve, poor fit]",
Cc1cccc(Cn2nnc3c2C(=O)c2ccccc2C3=O)c1,"inconclusive: 29.1 µM [inhibitor, single point]",
COC(=O)c1nc(N)sc1-c1ccc(OC)cc1,"inconclusive: 6.31 µM [activator, single point]",
N#Cc1c(NC(=O)c2ccccc2)sc2c1CCC2,"inconclusive: 3.16 µM [inhibitor, full curve]",
CCCN1CCCc2cc(CN(CCCN3CCOCC3)C(=O)Nc3ccc(OCC)cc3)ccc21,"inconclusive: 4.47 µM [activator, partial curve, poor fit]",
COc1ccc(N(CC(=O)N/N=C/c2ccc(F)cc2)S(=O)(=O)c2ccccc2)cc1,"inconclusive: 8.91 µM [inhibitor, partial curve, poor fit]",
CSc1ccccc1N=CC1=C(O)CC(C)(C)CC1=O,,inactive: -5.86%
Cc1cccc(Cn2nnc3c(=O)[nH]c(C4CCCN(C(=O)c5ccc(C(C)(C)C)cc5)C4)nc32)c1 (centres undefined),,inactive: -14.6% [at 46.1 µM]
CCN1CCCC1CN(Cc1cc2cc(C)cc(C)c2[nH]c1=O)C(=O)Nc1ccccc1OC (centres undefined),,inactive: 10.1%
C/C(CC(=O)Nc1ccc(OCc2ccccc2)cc1)=N\NC(=O)C(=O)Nc1cccc(C)c1,,inactive: 11.5%
Cc1ccc2nc(CSc3nnc(Nc4ccccc4F)s3)cc(=O)n2c1,"inconclusive: 0.282 µM [activator, partial curve, poor fit]",
Cc1cc(NS(=O)(=O)c2ccc(NC(=O)C(c3ccccc3)c3ccccc3)cc2)no1,,inactive: 6.86%
CCc1ccc(CNCCc2ccc(F)cc2)cc1,"inconclusive: 29.1 µM [inhibitor, single point]",
O=S(=O)(NCc1ccc(Cl)cc1)NCc1ccccc1F,"inconclusive: 35.5 µM [inhibitor, single point]",
Cc1ccc(Cn2c(CN(C)Cc3ccccc3)nc3c2c(=O)n(C)c(=O)n3C)cc1,"inconclusive: 18.3 µM [inhibitor, single point]",
O=[N+]([O-])c1ccc(NN=Cc2ccc(O)cc2O)nc1,"inconclusive: 28.2 µM [inhibitor, single point]",
O=C(NCc1ccc2c(c1)OCO2)c1cccnc1,"inconclusive: 3.55 µM [inhibitor, partial curve, poor fit]",
CC[C@H](C)C(=O)O[C@H]1C[C@@H](C)C=C2C=C[C@H](C)[C@H](CC[C@@H]3C[C@@H](O)CC(=O)O3)[C@H]21,,inactive: -3.67%
CCc1nnc(NC(=O)c2ccc(Cl)nc2)s1,,inactive: -16.2% [at 46.1 µM]
CCOCCc1nn2c(=O)cc(COC(=O)c3ccc(NC(=O)c4ccc(F)cc4)cc3)nc2s1,"inconclusive: 35.5 µM [activator, single point]",

SMILES,Potency,"activity change, negative = inhibition"
CCC1SC(C)C/C(=N/NC(N)=O)C1C (centres undefined),,inactive: 8.31%
CCN(C(=O)c1ccc(NC(=O)Cc2ccccc2)cc1)c1ccccc1,,inactive: -24%
O=C(Nc1ccccc1Cl)c1ccc(COc2ccc3c(c2)CCC3)cc1,,inactive: 18.1%
Cc1cc(NS(=O)(=O)c2ccc(NC(=O)/C=C/c3c(F)cccc3Cl)cc2)no1,,inactive: 14%
C=CC[n+]1c(-c2ccc(OC)cc2)csc1NNC(=O)Nc1ccccc1,"inconclusive: 16.4 µM [inhibitor, partial curve]",
COc1cccc(/C=C/C(=O)OCC(=O)NCCC2=CCCCC2)c1,"inconclusive: 35.5 µM [inhibitor, single point]",
COCc1cc(C)nc(SCC(=O)Nc2cc(C(F)(F)F)ccc2N2CCOCC2)c1C#N,"inconclusive: 10 µM [inhibitor, partial curve, poor fit]",
O=c1c2ccccc2nc2n1CCCCC2,,inactive: -9.67%
COc1ccccc1C(=O)NCCc1csc(-c2ccc(C(F)(F)F)cc2)n1,"inconclusive: 35.5 µM [inhibitor, single point]",
COc1cc(NC(=O)Cn2c(=O)n(CC3CCCO3)c(=O)c3cc(OC)c(OC)cc32)cc(OC)c1 (centres undefined),,inactive: 23.4% [at 46.1 µM]
c1ccc(Cc2cc(-c3ccccc3)on2)cc1,"inconclusive: 23.1 µM [activator, single point]",
CCNC(=S)Nc1cc(C)ccn1,"inconclusive: 0.708 µM [inhibitor, single point]",
Cc1cccc(Cn2c(SCc3ccc(C(=O)NCc4ccccc4F)cc3)nc3cccnc32)c1,"inconclusive: 14.1 µM [inhibitor, single point]",
Cc1ccc(-n2ccnc(NCc3cccs3)c2=O)cc1C,"inconclusive: 35.5 µM [inhibitor, single point]",
Cc1cc(C)c2oc(C(=O)Nc3nc4ccc(Cl)cc4s3)cc(=O)c2c1,,inactive: 3.25% [at 46.1 µM]
CCOC(=O)C1(CCCc2ccccc2)CCN(Cc2nccn2CC)CC1,"inconclusive: 2.24 µM [inhibitor, partial curve, poor fit]",
CCN(C(=O)Cc1cccs1)c1nnc(-c2cc(OC)c(OC)c(OC)c2)s1,"inconclusive: 1.16 µM [activator, single point]",
O=C(COC(=O)/C=C/c1c(F)cccc1Cl)NCC1CCCO1 (centres undefined),,inactive: -2.76% [at 46.1 µM]
CCCS(=O)(=O)c1nc(S(=O)(=O)c2ccc(C)cc2)c(NC(C)c2ccccc2)s1 (centres undefined),"inconclusive: 3.16 µM [inhibitor, partial curve, poor fit]",
O=c1[nH][nH]c(C(F)(F)F)c1C=Nc1ccccc1,,inactive: 3.62%
O=C(Nc1nc2ccc(Cl)cc2s1)C1CCCO1 (centres undefined),"inconclusive: 1 µM [activator, partial curve]",
Cc1cccc(N(CC(=O)NCC2CCCO2)C(=O)CCC(=O)Nc2cc(C)on2)c1 (centres undefined),"inconclusive: 29.1 µM [activator, single point]",
COc1ccc(N(CC(=O)Nc2cc(C)ccc2OC)S(=O)(=O)c2c(C)noc2C)cc1,"inconclusive: 29.1 µM [inhibitor, single point]",

# Arranged by SMILES length (ascending): three of the compounds above.
SMILES,Potency,"activity change, negative = inhibition"
Cc1ccc(-n2ccnc(NCc3cccs3)c2=O)cc1C,"inconclusive: 35.5 µM [inhibitor, single point]",
O=C(COC(=O)/C=C/c1c(F)cccc1Cl)NCC1CCCO1 (centres undefined),,inactive: -2.76% [at 46.1 µM]
COc1cccc(/C=C/C(=O)OCC(=O)NCCC2=CCCCC2)c1,"inconclusive: 35.5 µM [inhibitor, single point]",
